Reference: paper PMC6747087, “Characterization of Tachyplesin Peptides and Their Cyclized Analogues to Improve Antimicrobial and Anticancer Properties” (International Journal of Molecular Sciences, 2019)
Residues, ends and D or L forms follow the SMILES beside them.

Experiments:
[1] = Trp fluorescence emission shift upon titration with LUVs; format: binding; conditions: 12.5 µM peptide
[2] = as above; format: binding; conditions: 12.5 µM peptide; remark: listed apart in the source

What does the source list for `CC[C@H](C)[C@@H]1NC(=O)CNC(=O)[C@H](CCCNC(=N)N)NC(=O)[C@H](Cc2ccc(O)cc2)NC(=O)[C@@H]2CSSC[C@H](NC1=O)C(=O)N[C@@H](Cc1ccc(O)cc1)C(=O)N[C@@H](CCCNC(=N)N)C(=O)N[C@@H](CCCCN)C(=O)N[C@H](C(=O)N[C@@H](CCCNC(=N)N)C(N)=O)CSSC[C@H](NC(=O)[C@H](Cc1c[nH]c3ccccc13)NC(=O)[C@@H](N)CCCCN)C(=O)N[C@@H](Cc1ccccc1)C(=O)N[C@@H](CCCNC(=N)N)C(=O)N[C@@H](C(C)C)C(=O)N2` [TIII, Tachyplesin III] (HELM PEPTIDE1{K.W.C.F.R.V.C.Y.R.G.I.C.Y.R.K.C.R.[am]}$PEPTIDE1,PEPTIDE1,3:R3-16:R3|PEPTIDE1,PEPTIDE1,7:R3-12:R3$$$V2.0; N-terminus assumed)?
shift in fluorescence emission maximum wavelength (blue shift) ([1]; 1 mM POPC/POPS (4:1) LUVs): 18 nm; 0.5 [L] (lipid concentration required to achieve half of the maximum blue shift) ([1]; POPC/POPS (4:1) LUVs): 0.30 mM; shift in fluorescence emission maximum wavelength (blue shift) ([2]; 1 mM POPC/POPG (4:1) LUVs): 23 nm; 0.5 [L] (lipid concentration required to achieve half of the maximum blue shift) ([2]; POPC/POPG (4:1) LUVs): 0.10 mM
